Measured values published in article PMC12955949.
Results are given in words; binding and its absence hold for the method and conditions named. For some assays here: Binding seen in cells or lysates may run through a third protein. Some entries that bind do so weakly or less than the wild type.

Amino acid sequences for entries named in this document (tags omitted). Residues count along the entry.
UniProt P01137, residues 279-390: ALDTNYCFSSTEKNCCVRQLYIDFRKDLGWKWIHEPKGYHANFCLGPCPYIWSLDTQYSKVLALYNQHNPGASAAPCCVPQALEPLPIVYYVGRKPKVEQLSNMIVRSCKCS

Key:
[1] = molecular target: T1, recombinant VDR (vitamin D receptor) (UniProt P11473); test: co-IP; recombinant VDR (5 µg) incubated with recombinant TGFβ1; anti-VDR (ab3508) or isotype antibody overnight at 4 °C; captured on Dynabeads Protein G; Western blot with anti-VDR and anti-TGFβ1; both purified
T1 sequence: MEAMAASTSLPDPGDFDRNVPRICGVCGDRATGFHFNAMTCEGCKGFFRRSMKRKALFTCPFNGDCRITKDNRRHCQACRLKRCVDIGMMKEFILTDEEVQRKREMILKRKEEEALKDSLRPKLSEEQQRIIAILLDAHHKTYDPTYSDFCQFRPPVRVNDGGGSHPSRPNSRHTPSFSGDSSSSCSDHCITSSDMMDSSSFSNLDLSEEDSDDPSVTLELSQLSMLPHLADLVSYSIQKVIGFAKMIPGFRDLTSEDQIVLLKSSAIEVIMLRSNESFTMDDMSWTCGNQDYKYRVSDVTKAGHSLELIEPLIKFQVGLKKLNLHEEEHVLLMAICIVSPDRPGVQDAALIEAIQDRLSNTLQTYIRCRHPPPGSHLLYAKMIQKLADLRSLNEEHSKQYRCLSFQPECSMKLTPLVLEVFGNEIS

[2] = molecular target: T2, Vitamin D receptor (VDR), endogenous in endometrial organoid lysate (human (endogenous in endometrial organoids)) (UniProt P11473); test: co-IP; EO protein lysate (500 µg) incubated with recombinant TGFβ1; anti-VDR (ab3508) or isotype antibody overnight at 4 °C; captured on Dynabeads Protein G; Western blot with anti-VDR and anti-TGFβ1; only the binder purified
T2 sequence: T1 sequence

binding [1]: binds
binding [2]: binds
Substance: recombinant human TGFβ1 protein (transforming growth factor beta-1) (from UniProt P01137 279-390) (ligand)
